Values from PubChem BioAssay AID1259254 (NCATS, 2017)

Purpose: 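Gene knock-downs that lead to re-replication, shown by excess G2 DNA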 (primary screen)
Cells: human HCT116 colorectal cancer cells
Reagent: single siRNA against human genes
Timing: 3 days
Measurement: 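Imaged Hoechst DNA stain sorts each cell into a cycle phase by DNA amount; per plate, G2 fraction set to 0% for non-targeting and 100% for GMNN siRNA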
Direction: G2 robust z-score and G2 cells, % of GMNN control: higher = more G2 cells, more excess DNA replication; raw share of cells in G2: higher = larger share of cells with G2 DNA content
Call rule: 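Active siRNAs have a G2 robust z of 5 or more median absolute deviations over the median, which in these data means about 38% or higher of GMNN control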
Shown is one part, drawn at random, of about 59,000 reagents tested. About 1,550 of them (2.6%) were called active. 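G2 share is only a proxy for re-replication; each gene was hit by three separate siRNAs, and active genes were retested.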 The raw values are shown without normalisation. A number with no mark means an inactive call. Not given: the amount of reagent.

Gene,PubChem SID,G2 robust z-score,"G2 cells, % of GMNN control",raw share of cells in G2 (%)
YWHAQ,SID160729651,1.35,12.5,7.87
YWHAQ,SID160729652,-1.17,-5.25,3.41
YWHAQ,SID160729653,-1.01,-4.11,4.86
SBK2,SID160725963,-0.866,-3.12,2.6
SBK2,SID160725964,-0.234,1.32,3.71
SBK2,SID160725965,-0.257,1.16,3.41
ASB13,SID160734949,-1.55,-7.91,0.214
ASB13,SID160749369,0.127,3.86,6.05
ASB13,SID160749370,1.41,12.9,9.94
C1orf185,SID160763375,0.828,8.79,6.85
C1orf185,SID160763378,6.38 (active),47.9,21.6
C1orf185,SID160763379,1.09,10.7,6.51
STRAP,SID160730111,-0.937,-3.63,3.56
STRAP,SID160730112,0.279,4.93,6.17
STRAP,SID160730113,0.474,6.3,5.53
XRCC2,SID160718913,1.47,13.3,11.2
XRCC2,SID160718914,5.39 (active),40.9,17.9
XRCC2,SID160718915,0.721,8.04,7.25
NAPSA,SID160722305,0.293,5.03,7.31
NAPSA,SID160722306,0.268,4.86,6.63
NAPSA,SID160722307,0.201,4.38,5.54
PDZD8,SID160755691,0.327,5.27,4.9
PDZD8,SID160755692,-0.602,-1.27,2.72
PDZD8,SID160755693,-0.197,1.58,4.08

Only “raw share of cells in G2 (%)” (6 entries from above):
ASB13 [SID160749369] = 6.05
ASB13 [SID160749370] = 9.94
C1orf185 [SID160763375] = 6.85
C1orf185 [SID160763378] = 21.6 (active)
C1orf185 [SID160763379] = 6.51
STRAP [SID160730111] = 3.56

More entries:
Gene,PubChem SID,G2 robust z-score,"G2 cells, % of GMNN control",raw share of cells in G2 (%)
TAF12,SID160717678,2.01,17.1,12.7
TAF12,SID160717679,-0.437,-0.109,3.85
TAF12,SID160717680,-0.103,2.24,4.14
FAM156B,SID160734249,-0.247,1.23,4.07
FAM156B,SID160771250,0.0673,3.44,4.85
FAM156B,SID160771253,0.624,7.36,5.47
SACK1G,SID160769336,0.896,9.27,7.17
SACK1G,SID160769338,-0.316,0.743,3.54
SACK1G,SID160769339,0.209,4.44,4.44
RGS9,SID160720796,-0.116,2.15,5.51
RGS9,SID160720797,5.25 (active),39.9,19.3
RGS9,SID160720798,0.527,6.67,7.1
NR2C2AP,SID160732421,-0.342,0.563,2.78
NR2C2AP,SID160756478,0.0108,3.04,5.32
NR2C2AP,SID160756479,-0.00915,2.9,4.02
UGT2B10,SID160718604,0.569,6.97,8.54
UGT2B10,SID160718605,2.97,23.9,12.3
UGT2B10,SID160718606,0.0585,3.38,5.52
TDRD6,SID160761675,-1.1,-4.78,3.68
TDRD6,SID160761676,0.0202,3.11,5.84
TDRD6,SID160761677,1.55,13.9,10.5
HPS6,SID160749477,-0.0965,2.29,5.39
HPS6,SID160749478,-0.522,-0.708,3.99
HPS6,SID160749479,-0.202,1.54,2.8
LOC728445 (retired record),SID160771810,-1.11,-4.85,1.7
LOC728445 (retired record),SID160771811,0.984,9.89,6.36
LOC728445 (retired record),SID160771813,0.53,6.69,6.13
HNF1B,SID160717794,3.63,28.5,14.8
HNF1B,SID160717795,0.517,6.61,7.2
HNF1B,SID160717796,1.33,12.3,8.25
NCOR2,SID160722612,1.04,10.3,6.71
NCOR2,SID160722613,-0.699,-1.95,3.96
NCOR2,SID160722614,0.591,7.13,7.9
FAM228A,SID160770931,0.932,9.52,7.47
FAM228A,SID160770932,0.62,7.33,5.88
FAM228A,SID160770933,0.34,5.36,4.37
PDIA6,SID160725791,0.634,7.43,7.77
PDIA6,SID160725800,-0.561,-0.978,2.87
PDIA6,SID160725805,2.27,18.9,12.4
ALDH1L2,SID160730669,-0.671,-1.75,3.96
ALDH1L2,SID160759780,0.476,6.31,8.97
ALDH1L2,SID160759781,-0.531,-0.77,4.42
AMFR,SID160717121,0.258,4.78,6.35
AMFR,SID160717129,0.969,9.78,8.55
AMFR,SID160717139,-0.526,-0.735,3.72
